According to PubChem BioAssay AID330 (DTP/NCI, 2004):
The list does not hold the whole screen: it is rich in T/C values a quarter to a half above the control, in often repeated tests (any T/C) and in doses without a T/C. Further doses and runs are listed elsewhere. T/C gives the treated animals as a percentage of the vehicle group. Some doses have a count of surviving animals in place of a T/C: the source holds a T/C of zero for them, seemingly a mark for toxic or unscored doses. Some doses without a T/C left all or most animals alive at the check, yet need not have been tolerated: survival well below the control is almost never listed, so the zero probably covers shortened survival too. Survivors were counted at the toxicity check, usually on the fifth day, unless a day is given; later deaths do not show. Schedules are NCI's codes, taken here to give the interval after Q, in days (D) or hours (H), and the number of doses after X. Some entries hold several experiments; their values stand side by side, smallest first. For survival time, the PubChem record calls one and a half times the control and up active, and a quarter to a half above the control has no call in these data; cut-offs in other NCI protocols can differ. Some T/C values are followed by the survivors on the day toxicity was checked, most often the fifth; without a count, all were alive then.

Tested on: P388 leukemia ip, CD2F1 mice, survival T/C
Experiment: NCI In Vivo Anticancer Drug Screen. Data for tumor model P388 Leukemia (intraperitoneal) in CD2F1 (CDF1) mice
Settings: T/C endpoint: median survival time, higher T/C = longer survival
[1] = dose: 0.06 mg/kg/injection, schedule: Q01DX009 (ip), vehicle: water
[2] = dose: 0.12 mg/kg/injection, schedule: Q01DX009 (ip), vehicle: water
[3] = dose: 200.0 mg/kg/injection, schedule: Q01DX005 (ip), vehicle: saline with Tween-80
[4] = dose: 1.56 mg/kg/injection, schedule: Q01DX009 (ip), vehicle: saline with Tween-80
[5] = dose: 12.5 mg/kg/injection, schedule: Q01DX009 (ip), vehicle: saline with Tween-80
[6] = dose: 200.0 mg/kg/injection, schedule: Q01DX005 (ip), vehicle: Klucel (hydroxypropylcellulose) (HPC)

C=C1COC(O)(C2OCOC(C3CC(=O)NC(=O)C3)C2O)C1C (stereo unspecified)
survivor count (dose: 0.03 mg/kg/injection, schedule: Q01DX009 (ip), vehicle: water): 6 of 6 | T/C [1]: 132 % of control | survivor count [1]: 1 of 6 | T/C [2]: 142 % of control | survivor count [2]: 0 of 6 | survivor count (dose: 0.84 micrograms/kg/injection, schedule: Q01DX009 (ip), vehicle: water): 0 of 6 | survivor count (dose: 1.68 micrograms/kg/injection, schedule: Q01DX009 (ip), vehicle: water): 0 of 6 | survivor count (dose: 3.37 micrograms/kg/injection, schedule: Q01DX009 (ip), vehicle: water): 0 of 6 | survivor count (dose: 7.5 micrograms/kg/injection, schedule: Q01DX009 (ip), vehicle: water): 4 of 6 | T/C (dose: 8.0 micrograms/kg/injection, schedule: Q01DX009 (ip), vehicle: water): 140 % of control | T/C (dose: 16.0 micrograms/kg/injection, schedule: Q01DX009 (ip), vehicle: water): 149 % of control

C=C1C(=O)C23C(O)C1CCC2C12COC3(O)C(O)C1C(C)(C)CCC2OC(C)=O (stereo unspecified)
survivor count (dose: 40.0 mg/kg/injection, schedule: Q01DX009 (ip), vehicle: saline with Tween-80): 5 of 6 | survivor count (dose: 50.0 mg/kg/injection, schedule: Q01DX009 (ip), vehicle: saline with Tween-80): 2 of 3 | survivor count (dose: 80.0 mg/kg/injection, schedule: Q01DX009 (ip), vehicle: saline with Tween-80): 0 of 6 | survivor count (dose: 100.0 mg/kg/injection, schedule: Q01DX009 (ip), vehicle: saline with Tween-80): 0 of 3

C1CCC2(CC1)CSC2.[Br][Hg][Br]
survivor count (dose: 25.0 mg/kg/injection, schedule: Q01DX001 (ip), vehicle: saline with Tween-80): 1 of 6

C[Si](C)(C)CNCc1ccccc1
survivor count (dose: 120.0 mg/kg/injection, schedule: Q01DX005 (ip), vehicle: saline): 3 of 6 | survivor count (dose: 240.0 mg/kg/injection, schedule: Q01DX005 (ip), vehicle: saline): 0 of 6

C/C=C1/CN2C3CC45c6ccccc6N(C)C4C2CC1C3C5O (stereo unspecified)
survivor count [3]: 3 of 6

COc1cccc2c1C(=O)c1c(O)c3c(c(O)c1C2=O)CC(O)(C(O)CO)CC3OC1CC(N2CCSCC2)C(O)C(C)O1 (stereo unspecified)
T/C (dose: 25.0 mg/kg/injection, schedule: Q04DX003 (ip), vehicle: saline): 131 % of control | T/C (dose: 50.0 mg/kg/injection, schedule: Q04DX003 (ip), vehicle: saline): 131 % of control

C[CH2][Sn]1([CH2]C)[O]OC(c2ccccc2)[O]1 (stereo unspecified)
T/C [4]: 133 % of control | T/C (dose: 3.12 mg/kg/injection, schedule: Q01DX009 (ip), vehicle: saline with Tween-80): 142 and 144 % of control | T/C (dose: 6.25 mg/kg/injection, schedule: Q01DX009 (ip), vehicle: saline with Tween-80): 146 [5 of 6 alive] and 148 % of control | survivor count [5]: 0 of 6 | survivor count (dose: 25.0 mg/kg/injection, schedule: Q01DX009 (ip), vehicle: saline with Tween-80): 0 of 6 and 1 of 6

Cc1cc(N/N=C/c2ccc3c(c2)OCO3)c2cc3c(cc2n1)OCO3
survivor count (dose: 50.0 mg/kg/injection, schedule: Q01DX005 (ip), vehicle: Klucel (hydroxypropylcellulose) (HPC)): 6 of 6 | survivor count (dose: 100.0 mg/kg/injection, schedule: Q01DX005 (ip), vehicle: Klucel (hydroxypropylcellulose) (HPC)): 0 of 6 | survivor count [6]: 0 of 6

COc1cc(C2c3cc4c(cc3[C@@H](OC3OC5CO[C@@H](C)OC5C(O)C3O)[C@H]3COC(=O)C23)OCO4)cc(OC)c1OC (stereo partly specified)
T/C (dose: 4.0 mg/kg/injection, schedule: Q01DX005 (ip), vehicle: saline): 144 % of control | T/C (dose: 8.0 mg/kg/injection, schedule: Q01DX005 (ip), vehicle: saline): 130 and 144 % of control | T/C (dose: 16.0 mg/kg/injection, schedule: Q01DX005 (ip), vehicle: saline): 135 % of control | T/C (dose: 32.0 mg/kg/injection, schedule: Q01DX005 (ip), vehicle: saline): 148 % of control

COC(=O)C1C2CC3c4[nH]c5cc(OC)ccc5c4CCN3CC2CC(O)C1OC (stereo unspecified)
survivor count [6]: 0 of 6

ClC(Cl)(Cl)C(=NN=C(C(Cl)(Cl)Cl)C(Cl)(Cl)Cl)C(Cl)(Cl)Cl
survivor count (dose: 120.0 mg/kg/injection, schedule: Q01DX005 (ip), vehicle: saline with Tween-80): 0 of 6 | survivor count (dose: 240.0 mg/kg/injection, schedule: Q01DX005 (ip), vehicle: saline with Tween-80): 0 of 6

CC1CP(c2ccccc2)(c2ccccc2)(c2ccccc2)OC1(C(=O)c1ccccc1)c1ccccc1 (stereo unspecified)
survivor count [5]: 4 of 6

Cc1c2oc3c(C)ccc(C(=O)NC4C(=O)NC(C(C)C)C(=O)N5CCCCC5C(=O)N(C)CC(=O)N(C)C(C(C)C)C(=O)OC4C)c3nc-2c(C(=O)NC2C(=O)NC(C(C)C)C(=O)N3CCCCC3C(=O)N(C)CC(=O)N(C)C(C(C)C)C(=O)OC2C)c(N)c1=O (stereo unspecified)
T/C (dose: 0.78 mg/kg/injection, schedule: Q01DX009 (ip), vehicle: saline with Tween-80): 139 % of control | T/C [4]: 140 % of control | T/C (dose: 3.13 mg/kg/injection, schedule: Q01DX009 (ip), vehicle: saline with Tween-80): 149 % of control

Cc1cc(N(CCOS(C)(=O)=O)CCOS(C)(=O)=O)ccc1C=Nc1ccc(-c2csc(-c3ccccc3)n2)c(Cl)c1
T/C (dose: 25.0 mg/kg/injection, schedule: Q01DX009 (ip), vehicle: Klucel (hydroxypropylcellulose) (HPC)): 140 % of control | T/C (dose: 50.0 mg/kg/injection, schedule: Q01DX009 (ip), vehicle: Klucel (hydroxypropylcellulose) (HPC)): 125, 127, 135 % of control | survivor count (dose: 200.0 mg/kg/injection, schedule: Q01DX009 (ip), vehicle: Klucel (hydroxypropylcellulose) (HPC)): 5 of 6 and 6 of 6

[CH3][Sn]([CH3])([n]1cc(CC(=O)O)c2ccccc21)[n]1cc(CC(=O)O)c2ccccc21
survivor count [6]: 0 of 6

Cc1ccccc1-n1c(=S)n(-c2ccc(Cl)cc2)c2nc3ccccc3nc1/c2=N/Nc1ccccc1
survivor count (dose: 100.0 mg/kg/injection, schedule: Q01DX005 (ip), vehicle: saline with Tween-80): 4 of 6 | survivor count [3]: 3 of 6
